The assay addresses CNB-1::V5::GFP (calcineurin regulatory subunit B, tagged) (Neurospora crassa) (UniProt P87072). As to the kind of experiment: co-IP; whole cell extracts (10 mg protein) of N. crassa forced heterokaryons; GFP-Trap agarose beads, overnight at 4°C; 50 mM Tris-Cl pH 7.5, 1 mM EDTA, 6 mM MgCl2; immunoblot with anti-GFP and anti-S-tag. For orientation: A western blot detects proteins with antibodies after separation by electrophoresis.

Sequences of proteins named here, by UniProt entry; tags and fusion partners are left off.
UniProt P87072: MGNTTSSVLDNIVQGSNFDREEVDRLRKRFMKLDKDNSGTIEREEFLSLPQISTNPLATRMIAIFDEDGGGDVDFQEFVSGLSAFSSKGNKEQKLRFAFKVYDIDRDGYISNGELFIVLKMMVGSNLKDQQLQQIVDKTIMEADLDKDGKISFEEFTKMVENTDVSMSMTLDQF
UniProt Q05681: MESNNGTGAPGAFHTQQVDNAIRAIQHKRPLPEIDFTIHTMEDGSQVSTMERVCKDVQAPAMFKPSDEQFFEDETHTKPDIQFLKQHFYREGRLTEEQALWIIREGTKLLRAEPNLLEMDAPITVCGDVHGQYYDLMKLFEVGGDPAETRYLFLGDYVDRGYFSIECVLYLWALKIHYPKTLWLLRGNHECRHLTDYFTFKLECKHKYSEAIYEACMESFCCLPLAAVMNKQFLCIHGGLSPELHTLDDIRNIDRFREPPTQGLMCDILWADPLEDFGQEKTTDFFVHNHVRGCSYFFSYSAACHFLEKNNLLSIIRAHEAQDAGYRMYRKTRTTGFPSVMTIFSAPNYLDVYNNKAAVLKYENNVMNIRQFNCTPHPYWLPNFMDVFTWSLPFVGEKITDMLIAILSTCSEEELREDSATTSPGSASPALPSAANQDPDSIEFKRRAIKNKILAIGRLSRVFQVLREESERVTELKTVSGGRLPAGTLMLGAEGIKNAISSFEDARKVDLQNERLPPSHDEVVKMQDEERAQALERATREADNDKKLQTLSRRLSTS

Results are given in words; binding and its absence hold for the method and conditions named. In cells and extracts the contact can be indirect. Some entries that bind do so weakly or less than the wild type.

As to “CNA-1::S-tag::RFP (calcineurin catalytic subunit A, tagged) (from UniProt Q05681 1-558) (enzyme)”, the binding entry is reported as “binds”.

The values above are taken from article PMC4809485.
